Like-named read-outs stand apart in the source and are kept apart here. Results are given in words; binding and its absence hold for the method and conditions named. In cells and extracts the contact can be indirect. A yes stands for co-enrichment or nearness to the bait. Other partners may have been found. For some assays here: No binding means not detected with the bait. For some assays here: Tags and fused reporters may be left off the sequences shown.

By UniProt entry, the sequences of proteins in these tests, tags left out. Where a name states a change or a piece, a line headed by the entry shows the natural chain unless it says otherwise.
UniProt P20338: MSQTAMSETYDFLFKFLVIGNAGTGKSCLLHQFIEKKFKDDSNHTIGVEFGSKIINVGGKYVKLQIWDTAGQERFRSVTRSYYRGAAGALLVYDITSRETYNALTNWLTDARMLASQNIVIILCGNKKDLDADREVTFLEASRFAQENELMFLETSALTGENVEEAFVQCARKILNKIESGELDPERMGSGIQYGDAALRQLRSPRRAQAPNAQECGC
UniProt Q658Y4: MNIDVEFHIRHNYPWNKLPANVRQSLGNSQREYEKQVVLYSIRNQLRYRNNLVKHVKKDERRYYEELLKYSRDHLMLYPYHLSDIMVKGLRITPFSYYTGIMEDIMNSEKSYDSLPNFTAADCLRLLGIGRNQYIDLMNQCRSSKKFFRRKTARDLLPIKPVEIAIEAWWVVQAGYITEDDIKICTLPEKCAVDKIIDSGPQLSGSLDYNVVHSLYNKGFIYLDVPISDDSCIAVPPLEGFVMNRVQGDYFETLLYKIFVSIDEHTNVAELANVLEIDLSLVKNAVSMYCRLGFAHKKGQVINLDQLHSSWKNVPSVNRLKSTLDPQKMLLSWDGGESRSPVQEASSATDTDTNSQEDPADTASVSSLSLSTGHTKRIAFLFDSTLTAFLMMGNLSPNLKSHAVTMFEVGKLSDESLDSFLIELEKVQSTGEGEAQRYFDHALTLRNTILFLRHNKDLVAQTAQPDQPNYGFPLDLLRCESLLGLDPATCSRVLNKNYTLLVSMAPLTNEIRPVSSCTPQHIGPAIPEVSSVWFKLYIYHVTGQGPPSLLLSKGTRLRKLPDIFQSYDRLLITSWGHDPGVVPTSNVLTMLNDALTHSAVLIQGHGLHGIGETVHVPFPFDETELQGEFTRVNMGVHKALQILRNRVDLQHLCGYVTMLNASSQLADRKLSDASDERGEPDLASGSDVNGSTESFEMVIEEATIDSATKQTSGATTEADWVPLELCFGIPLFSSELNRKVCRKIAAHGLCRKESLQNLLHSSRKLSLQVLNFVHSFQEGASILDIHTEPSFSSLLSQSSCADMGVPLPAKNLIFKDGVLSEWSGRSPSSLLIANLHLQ
UniProt Q92609: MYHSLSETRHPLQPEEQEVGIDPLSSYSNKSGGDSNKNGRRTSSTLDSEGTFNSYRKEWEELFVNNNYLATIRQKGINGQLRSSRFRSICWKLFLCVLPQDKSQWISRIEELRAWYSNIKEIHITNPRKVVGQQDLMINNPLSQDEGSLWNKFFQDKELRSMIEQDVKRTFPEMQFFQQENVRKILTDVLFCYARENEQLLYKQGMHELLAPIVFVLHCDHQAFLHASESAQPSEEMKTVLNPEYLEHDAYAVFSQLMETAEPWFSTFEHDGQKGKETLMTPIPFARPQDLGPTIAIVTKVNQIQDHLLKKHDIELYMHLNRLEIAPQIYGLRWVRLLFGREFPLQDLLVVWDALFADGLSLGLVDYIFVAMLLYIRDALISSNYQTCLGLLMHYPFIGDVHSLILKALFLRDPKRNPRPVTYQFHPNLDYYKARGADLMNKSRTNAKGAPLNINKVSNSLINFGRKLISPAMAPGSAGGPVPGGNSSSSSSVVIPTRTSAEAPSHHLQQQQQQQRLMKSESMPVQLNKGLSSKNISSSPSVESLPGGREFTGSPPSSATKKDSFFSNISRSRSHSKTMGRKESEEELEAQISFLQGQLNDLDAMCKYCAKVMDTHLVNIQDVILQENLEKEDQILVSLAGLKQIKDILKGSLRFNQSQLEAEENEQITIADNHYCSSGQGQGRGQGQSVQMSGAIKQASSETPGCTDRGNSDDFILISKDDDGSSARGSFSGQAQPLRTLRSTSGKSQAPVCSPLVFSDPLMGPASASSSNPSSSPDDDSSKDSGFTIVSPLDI
UniProt Q96T51: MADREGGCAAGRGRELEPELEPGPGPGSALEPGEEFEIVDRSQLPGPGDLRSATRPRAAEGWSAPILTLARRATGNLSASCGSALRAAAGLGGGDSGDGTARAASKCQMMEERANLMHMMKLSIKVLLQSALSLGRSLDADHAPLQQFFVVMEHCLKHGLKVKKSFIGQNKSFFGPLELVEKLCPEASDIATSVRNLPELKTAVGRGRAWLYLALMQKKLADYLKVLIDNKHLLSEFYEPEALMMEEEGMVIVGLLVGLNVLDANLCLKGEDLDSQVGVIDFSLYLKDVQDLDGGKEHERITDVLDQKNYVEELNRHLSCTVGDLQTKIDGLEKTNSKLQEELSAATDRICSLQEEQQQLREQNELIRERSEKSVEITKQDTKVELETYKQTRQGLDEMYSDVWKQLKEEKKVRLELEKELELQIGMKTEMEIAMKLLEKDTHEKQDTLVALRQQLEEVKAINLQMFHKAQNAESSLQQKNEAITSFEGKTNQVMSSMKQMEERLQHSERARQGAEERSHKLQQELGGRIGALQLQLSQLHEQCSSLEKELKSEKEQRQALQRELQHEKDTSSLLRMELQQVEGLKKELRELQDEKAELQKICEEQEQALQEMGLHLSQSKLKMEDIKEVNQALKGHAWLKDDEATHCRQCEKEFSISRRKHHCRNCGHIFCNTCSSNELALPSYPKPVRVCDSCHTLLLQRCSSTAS
UniProt P51149: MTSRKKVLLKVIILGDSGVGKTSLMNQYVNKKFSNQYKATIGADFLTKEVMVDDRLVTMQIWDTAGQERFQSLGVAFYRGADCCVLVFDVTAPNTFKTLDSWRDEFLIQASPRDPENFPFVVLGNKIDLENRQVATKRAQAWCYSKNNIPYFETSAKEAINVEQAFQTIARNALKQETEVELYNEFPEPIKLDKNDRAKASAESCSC
UniProt O43399: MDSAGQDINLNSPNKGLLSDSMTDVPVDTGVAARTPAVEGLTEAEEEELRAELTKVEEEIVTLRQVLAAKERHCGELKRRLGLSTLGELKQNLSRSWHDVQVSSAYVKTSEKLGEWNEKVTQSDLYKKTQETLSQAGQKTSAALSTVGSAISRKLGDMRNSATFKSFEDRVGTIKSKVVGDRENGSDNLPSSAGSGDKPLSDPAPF
UniProt Q15836: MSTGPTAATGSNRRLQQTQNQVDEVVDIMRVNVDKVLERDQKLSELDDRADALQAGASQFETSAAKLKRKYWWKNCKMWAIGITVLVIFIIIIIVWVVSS
UniProt Q9Y3P9: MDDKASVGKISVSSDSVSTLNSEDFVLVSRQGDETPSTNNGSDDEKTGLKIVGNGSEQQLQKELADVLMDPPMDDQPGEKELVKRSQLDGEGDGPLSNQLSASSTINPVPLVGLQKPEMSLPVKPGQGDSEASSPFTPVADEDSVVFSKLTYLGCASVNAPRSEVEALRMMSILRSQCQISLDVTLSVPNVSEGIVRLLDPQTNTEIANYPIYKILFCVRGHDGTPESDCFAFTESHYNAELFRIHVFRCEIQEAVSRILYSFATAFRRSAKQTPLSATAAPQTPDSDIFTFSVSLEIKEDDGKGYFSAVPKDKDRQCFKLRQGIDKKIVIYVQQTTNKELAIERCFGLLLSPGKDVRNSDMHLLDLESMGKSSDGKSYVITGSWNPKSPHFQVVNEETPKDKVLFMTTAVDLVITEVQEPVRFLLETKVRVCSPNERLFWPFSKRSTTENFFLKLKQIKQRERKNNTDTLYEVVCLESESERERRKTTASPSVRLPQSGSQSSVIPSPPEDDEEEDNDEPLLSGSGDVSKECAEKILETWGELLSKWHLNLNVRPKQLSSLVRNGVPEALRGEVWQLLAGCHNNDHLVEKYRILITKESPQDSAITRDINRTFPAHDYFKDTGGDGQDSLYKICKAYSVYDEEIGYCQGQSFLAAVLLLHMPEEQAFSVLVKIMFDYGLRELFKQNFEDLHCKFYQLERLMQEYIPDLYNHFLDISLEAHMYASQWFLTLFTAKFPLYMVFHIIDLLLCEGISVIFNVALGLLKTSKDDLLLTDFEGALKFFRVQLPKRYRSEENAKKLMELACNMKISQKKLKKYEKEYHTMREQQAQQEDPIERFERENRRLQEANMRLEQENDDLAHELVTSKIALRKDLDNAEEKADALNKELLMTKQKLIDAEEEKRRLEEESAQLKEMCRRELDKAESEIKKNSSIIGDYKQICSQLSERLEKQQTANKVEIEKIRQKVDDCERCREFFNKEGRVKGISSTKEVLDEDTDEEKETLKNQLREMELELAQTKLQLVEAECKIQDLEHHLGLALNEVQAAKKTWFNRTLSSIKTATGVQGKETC
UniProt P05556: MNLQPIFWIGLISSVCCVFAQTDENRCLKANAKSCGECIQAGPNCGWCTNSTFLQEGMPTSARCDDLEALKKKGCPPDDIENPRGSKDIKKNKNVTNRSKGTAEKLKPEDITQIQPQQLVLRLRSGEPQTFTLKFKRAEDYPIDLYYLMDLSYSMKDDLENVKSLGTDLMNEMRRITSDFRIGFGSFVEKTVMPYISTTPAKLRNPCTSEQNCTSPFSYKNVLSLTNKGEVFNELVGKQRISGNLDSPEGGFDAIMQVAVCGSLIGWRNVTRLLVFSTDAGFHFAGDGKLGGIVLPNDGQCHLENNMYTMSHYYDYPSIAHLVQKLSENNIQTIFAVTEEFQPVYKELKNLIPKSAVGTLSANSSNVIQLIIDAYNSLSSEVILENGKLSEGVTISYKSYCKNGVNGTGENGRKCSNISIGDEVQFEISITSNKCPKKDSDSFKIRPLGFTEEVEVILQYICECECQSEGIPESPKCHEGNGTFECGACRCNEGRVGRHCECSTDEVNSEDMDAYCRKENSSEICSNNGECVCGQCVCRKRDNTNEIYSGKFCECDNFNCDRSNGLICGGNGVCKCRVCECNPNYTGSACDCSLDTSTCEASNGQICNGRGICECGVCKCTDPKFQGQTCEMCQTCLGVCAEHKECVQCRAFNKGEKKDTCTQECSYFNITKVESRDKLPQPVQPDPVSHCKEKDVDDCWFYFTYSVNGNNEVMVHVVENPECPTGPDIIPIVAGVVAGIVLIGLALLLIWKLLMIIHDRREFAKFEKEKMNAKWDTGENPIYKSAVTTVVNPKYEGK
UniProt Q9NP61: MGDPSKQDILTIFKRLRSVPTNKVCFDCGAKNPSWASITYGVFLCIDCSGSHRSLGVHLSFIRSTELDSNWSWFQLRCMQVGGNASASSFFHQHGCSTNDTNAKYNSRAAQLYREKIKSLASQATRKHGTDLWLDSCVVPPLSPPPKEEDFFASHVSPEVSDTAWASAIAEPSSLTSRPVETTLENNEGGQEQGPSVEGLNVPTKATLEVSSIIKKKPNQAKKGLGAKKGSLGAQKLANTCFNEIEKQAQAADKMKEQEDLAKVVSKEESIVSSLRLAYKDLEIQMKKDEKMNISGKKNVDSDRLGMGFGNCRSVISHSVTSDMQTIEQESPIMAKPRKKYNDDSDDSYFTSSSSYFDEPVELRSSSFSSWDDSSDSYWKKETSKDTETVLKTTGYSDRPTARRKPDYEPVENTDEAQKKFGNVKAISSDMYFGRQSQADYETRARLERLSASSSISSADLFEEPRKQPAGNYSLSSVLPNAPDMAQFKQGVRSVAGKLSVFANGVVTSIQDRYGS
UniProt P61026: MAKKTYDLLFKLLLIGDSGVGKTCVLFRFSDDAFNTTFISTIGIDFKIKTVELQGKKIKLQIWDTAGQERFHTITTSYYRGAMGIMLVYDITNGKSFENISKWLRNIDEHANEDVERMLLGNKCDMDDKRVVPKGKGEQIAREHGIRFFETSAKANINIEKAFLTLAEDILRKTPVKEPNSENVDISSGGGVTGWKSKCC

Holding throughout (experiment): proximity labelling; BioID: A2780 cells stably expressing mycBirA*-Rab baits (mycBirA* alone as control), 1 uM biotin for 16 h; lysis in 0.4% SDS, 500 mM NaCl buffer; streptavidin microspheres; LC-MS/MS with label-free quantification, four replicates; high-confidence list by SAINTexpress (BFDR<=0.05), longlist by >2-fold enrichment; biotin-modified peptides also scored

Test [1] deals with mycBirA*–Rab4a (UniProt P20338).
Test [2] deals with mycBirA*–Rab11a (UniProt P62491).
Test [3] deals with T1, mycBirA*–Rab25 (UniProt P57735).
T1 sequence: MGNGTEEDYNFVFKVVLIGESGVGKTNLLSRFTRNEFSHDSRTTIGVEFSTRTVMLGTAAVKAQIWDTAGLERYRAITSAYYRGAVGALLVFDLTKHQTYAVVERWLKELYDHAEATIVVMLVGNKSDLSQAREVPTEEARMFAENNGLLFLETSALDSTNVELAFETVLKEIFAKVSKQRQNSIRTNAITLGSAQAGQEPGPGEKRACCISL

The target of test [4] is mycBirA*–Rab11a (UniProt P62491). The source holds these as a separate data set.
Test [5] has as its target T1, mycBirA*–Rab25. The source holds these as a separate data set.
Test [6] deals with mycBirA*–Rab4a (UniProt P20338). The source holds these as a separate data set.
The target in another test is T2, mycBirA*–Rab11a, P62491.
T2 chain: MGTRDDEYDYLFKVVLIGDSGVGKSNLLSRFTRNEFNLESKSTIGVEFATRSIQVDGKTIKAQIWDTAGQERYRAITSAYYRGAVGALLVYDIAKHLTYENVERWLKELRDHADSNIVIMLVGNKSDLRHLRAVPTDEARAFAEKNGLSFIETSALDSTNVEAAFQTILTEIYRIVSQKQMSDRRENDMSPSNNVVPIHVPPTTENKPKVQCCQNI
The conditions noted are these: remark: other sources report otherwise.

Regarding FAM91A1 (from UniProt Q658Y4 1-838), in the test with mycBirA*–Rab4a [1], the binding entry is given as “binds”.

Consider TBC1D5 (from UniProt Q92609 1-795), for which the binding entry with mycBirA*–Rab11a [2], in the test with mycBirA*–Rab25 [3] and with mycBirA*–Rab4a [1] was “binds” throughout.

On to RUFY1 (from UniProt Q96T51 1-708), for which the binding result in the test with mycBirA*–Rab4a [1] is listed as “binds”.

ARFGEF2 (from UniProt Q9Y6D5 1-1785): the binding entry with mycBirA*–Rab4a [1] was “binds”.

As to Rab7a (from UniProt P51149 1-207), the binding entry in the test with mycBirA*–Rab4a [1] is recorded as “binds”.

Take TPD52L2 (from UniProt O43399 1-206): the binding entry with mycBirA*–Rab11a [2], with mycBirA*–Rab25 [3] and with mycBirA*–Rab4a [1] was “binds” throughout.

Consider VAMP3 (from UniProt Q15836 1-100), for which the binding result with mycBirA*–Rab11a [2], with mycBirA*–Rab25 [3] and with mycBirA*–Rab4a [1] was “binds” throughout.

For RabGAP1 (from UniProt Q9Y3P9 1-1069), the binding entry in the test with mycBirA*–Rab11a [2], in the test with mycBirA*–Rab25 [3] and with mycBirA*–Rab4a [1] was “binds” throughout.

Take ITGB1 (from UniProt P05556 21-798): the binding result in the test with mycBirA*–Rab11a [2], with mycBirA*–Rab25 [3] and with mycBirA*–Rab4a [1] was “binds” throughout.

As to ARFGAP3 (from UniProt Q9NP61 1-516), the binding entry in the test with mycBirA*–Rab11a [2], in the test with mycBirA*–Rab25 [3] and in the test with mycBirA*–Rab4a [1] was “binds” in each case.

Turning to Rab10 (from UniProt P61026 1-200), the binding entry with mycBirA*–Rab11a [2], with mycBirA*–Rab25 [3] and in the test with mycBirA*–Rab4a [1] was “no binding” throughout.

B1: VPS51 (protein, UniProt Q9UID3 1-782)
chain: MAAAAAAGPSPGSGPGDSPEGPEGEAPERRRKAHGMLKLYYGLSEGEAAGRPAGPDPLDPTDLNGAHFDPEVYLDKLRRECPLAQLMDSETDMVRQIRALDSDMQTLVYENYNKFISATDTIRKMKNDFRKMEDEMDRLATNMAVITDFSARISATLQDRHERITKLAGVHALLRKLQFLFELPSRLTKCVELGAYGQAVRYQGRAQAVLQQYQHLPSFRAIQDDCQVITARLAQQLRQRFREGGSGAPEQAECVELLLALGEPAEELCEEFLAHARGRLEKELRNLEAELGPSPPAPDVLEFTDHGGSGFVGGLCQVAAAYQELFAAQGPAGAEKLAAFARQLGSRYFALVERRLAQEQGGGDNSLLVRALDRFHRRLRAPGALLAAAGLADAATEIVERVARERLGHHLQGLRAAFLGCLTDVRQALAAPRVAGKEGPGLAELLANVASSILSHIKASLAAVHLFTAKEVSFSNKPYFRGEFCSQGVREGLIVGFVHSMCQTAQSFCDSPGEKGGATPPALLLLLSRLCLDYETATISYILTLTDEQFLVQDQFPVTPVSTLCAEARETARRLLTHYVKVQGLVISQMLRKSVETRDWLSTLEPRNVRAVMKRVVEDTTAIDVQVGLLYEEGVRKAQSSDSSKRTFSVYSSSRQQGRYAPSYTPSAPMDTNLLSNIQKLFSERIDVFSPVEFNKVSVLTGIIKISLKTLLECVRLRTFGRFGLQQVQVDCHFLQLYLWRFVADEELVHLLLDEVVASAALRCPDPVPMEPSVVEVICERG
In the case of B1, the binding result with mycBirA*–Rab11a [4], with mycBirA*–Rab25 [5] and with mycBirA*–Rab4a [6] was “binds” each time.

B2: VPS8 (protein, UniProt Q8N3P4 1-1428)
chain: MENEPDHENVEQSLCAKTSEEELNKSFNLEASLSKFSYIDMDKELEFKNDLIDDKEFDIPQVDTPPTLESILNETDDEDESFILEDPTLLNIDTIDSHSYDTSSVASSDSGDRTNLKRKKKLPDSFSLHGSVMRHSLLKGISAQIVSAADKVDAGLPTAIAVSSLIAVGTSHGLALIFGKDQNQALRLCLGSTSVGGQYGAISALSINNDCSRLLCGFAKGQITMWDLASGKLLRSITDAHPPGTAILHIKFTDDPTLAICNDSGGSVFELTFKRVMGVRTCESRCLFSGSKGEVCCIEPLHSKPELKDHPITQFSLLAMASLTKILVIGLKPSLKVWMTFPYGRMDPSSVPLLAWHFVAVQNYVNPMLAFCRGDVVHFLLVKRDESGAIHVTKQKHLHLYYDLINFTWINSRTVVLLDSVEKLHVIDRQTQEELETVEISEVQLVYNSSHFKSLATGGNVSQALALVGEKACYQSISSYGGQIFYLGTKSVYVMMLRSWRERVDHLLKQDCLTEALALAWSFHEGKAKAVVGLSGDASKRKAIVADRMVEILFHYADRALKKCPDQGKIQVMEQHFQDMVPVIVDYCLLLQRKDLLFSQMYDKLSENSVAKGVFLECLEPYILSDKLVGITPQVMKDLIVHFQDKKLMENVEALIVHMDITSLDIQQVVLMCWENRLYDAMIYVYNRGMNEFISPMEKLFRVIAPPLNAGKTLTDEQVVMGNKLLVYISCCLAGRAYPLGDIPEDLVPLVKNQVFEFLIRLHSAEASPEEEIYPYIRTLLHFDTREFLNVLALTFEDFKNDKQAVEYQQRIVDILLKVMVENSDFTPSQVGCLFTFLARQLAKPDNTLFVNRTLFDQVLEFLCSPDDDSRHSERQQVLLELLQAGGIVQFEESRLIRMAEKAEFYQICEFMYEREHQYDKIIDCYLRDPLREEEVFNYIHNILSIPGHSAEEKQSVWQKAMDHIEELVSLKPCKAAELVATHFSGHIETVIKKLQNQVLLFKFLRSLLDPREGIHVNQELLQISPCITEQFIELLCQFNPTQVIETLQVLECYRLEETIQITQKYQLHEVTAYLLEKKGDIHGAFLIMLERLQSKLQEVTHQGENTKEDPSLKDVEDTMVETIALCQRNSHNLNQQQREALWFPLLEAMMAPQKLSSSAIPHLHSEALKSLTMQVLNSMAAFIALPSILQRILQDPVYGKGKLGEIQGLILGMLDTFNYEQTLLETTTSLLNQDLHWSLCNLRASVTRGLNPKQDYCSICLQQYKRRQEMADEIIVFSCGHLYHSFCLQNKECTVEFEGQTRWTCYKCSSSNKVGKLSENSSEIKKGRITPSQVKMSPSYHQSKGDPTAKKGTSEPVLDPQQIQAFDQLCRLYRGSSRLALLTELSQNRSSESYRPFSGSQSAPAFNSIFQNENFQLQLIPPPVTED
For the molecule B2, the binding entry with mycBirA*–Rab11a [4], with mycBirA*–Rab25 [5] and in the test with mycBirA*–Rab4a [6] was “binds” in each case.

B3: syntaxin 6 (protein, UniProt O43752 1-255)
chain: MSMEDPFFVVKGEVQKAVNTAQGLFQRWTELLQDPSTATREEIDWTTNELRNNLRSIEWDLEDLDETISIVEANPRKFNLDATELSIRKAFITSTRQVVRDMKDQMSTSSVQALAERKNRQALLGDSGSQNWSTGTTDKYGRLDRELQRANSHFIEEQQAQQQLIVEQQDEQLELVSGSIGVLKNMSQRIGGELEEQAVMLEDFSHELESTQSRLDNVMKKLAKVSHMTSDRRQWCAIAILFAVLLVVLILFLVL
In the case of B3, the binding result with mycBirA*–Rab11a [4], with mycBirA*–Rab25 [5] and with mycBirA*–Rab4a [6] was “binds” in each case.

B4: SNX4, O95219 1-450 (protein)
chain: MEQAPPDPERQLQPAPLEPLGSPDAGLGAAVGKEAEGAGEESSGVDTMTHNNFWLKKIEISVSEAEKRTGRNAMNMQETYTAYLIETRSVEHTDGQSVLTDSLWRRYSEFELLRSYLLVYYPHIVVPPLPEKRAEFVWHKLSADNMDPDFVERRRIGLENFLLRIASHPILCRDKIFYLFLTQEGNWKETVNETGFQLKADSRLKALNATFRVKNPDKRFTDLKHYSDELQSVISHLLRVRARVADRLYGVYKVHGNYGRVFSEWSAIEKEMGDGLQSAGHHMDVYASSIDDILEDEEHYADQLKEYLFYAEALRAVCRKHELMQYDLEMAAQDLASKKQQCEELVTGTVRTFSLKGMTTKLFGQETPEQREARIKVLEEQINEGEQQLKSKNLEGREFVKNAWADIERFKEQKNRDLKEALISYAVMQISMCKKGIQVWTNAKECFSKM
For B4, the binding result in the test with mycBirA*–Rab11a, P62491 is given as “binds”.

Source of the values: publication PMC10323252.
